Data source: PubChem BioAssay AID1259254 (NCATS, 2017)
Shown is a random part of about 59,000 deposited reagents. About 1,550 of them (2.6%) count as active. 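G2 share is only a proxy for re-replication; each gene was hit by three separate siRNAs, and active genes were retested.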 Unmarked entries are inactive. The numbers tell different reagents against one gene apart. Further read-outs or replicates are left out here. Not given: the amount of reagent.

- Test: 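Gene knock-downs that lead to re-replication, shown by excess G2 DNA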 (primary screen)
- Cells: human HCT116 colorectal cancer cells
- Reagent: single siRNA against human genes
- Time to read-out: 3 days
- Measurement: 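Nuclei stained with Hoechst and imaged; cell-cycle phase assigned by DNA content; G2 share scaled per plate, non-targeting siRNA 0%, GMNN siRNA 100%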
- Scale: G2 robust z-score: higher = more G2 cells, more excess DNA replication
- Call rule: 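An siRNA counts as active if its G2 robust z-score lies at least 5 MADs above the screen median; here such calls match roughly 38% of GMNN control or more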

| gene | reagent no. | G2 robust z-score |
| --- | --- | --- |
| SLC27A3 | 1 | 4.14 |
| SLC27A3 | 2 | -0.179 |
| SLC27A3 | 3 | -0.994 |
| HMGN2P16 | 1 | 1.63 |
| HMGN2P16 | 2 | -0.595 |
| HMGN2P16 | 3 | -1.11 |
| REXO1L8P | 1 | -0.517 |
| REXO1L8P | 2 | -0.385 |
| REXO1L8P | 3 | 0.0448 |
| FKRP | 1 | -1.14 |
| FKRP | 2 | 1.52 |
| FKRP | 3 | -0.499 |
| NADK2 | 1 | -0.428 |
| NADK2 | 2 | 0.0291 |
| NADK2 | 3 | -0.765 |
| SMOC2 | 1 | -0.348 |
| SMOC2 | 2 | 1.54 |
| SMOC2 | 3 | -0.441 |
| LOC728660 | 1 | -0.225 |
| LOC728660 | 2 | -0.896 |
| LOC728660 | 3 | 1.41 |
| ZFPM1 | 1 | -0.225 |
| ZFPM1 | 2 | -1.48 |
| ZFPM1 | 3 | 1.76 |
| PDXP | 1 | 0.325 |
| PDXP | 2 | 1.61 |
| PDXP | 3 | -1.29 |
| AZIN2 | 1 | -0.356 |
| AZIN2 | 2 | -0.571 |
| AZIN2 | 3 | 0.0857 |
| ACY1 | 1 | -0.755 |
| ACY1 | 2 | -0.787 |
| ACY1 | 3 | -0.25 |
| TYW3 | 1 | 0.784 |
| TYW3 | 2 | -0.363 |
| TYW3 | 3 | -0.845 |
| RPL6P1 | 1 | -0.683 |
| RPL6P1 | 2 | 1.22 |
| RPL6P1 | 3 | -0.422 |
| MLNR | 1 | -0.77 |
| MLNR | 2 | 1.18 |
| MLNR | 3 | 0.318 |
| NTRK2 | 1 | -0.49 |
| NTRK2 | 2 | 0.357 |
| NTRK2 | 3 | 0.644 |
| SAMD1 | 1 | -0.502 |
| SAMD1 | 2 | -0.444 |
| SAMD1 | 3 | 0.459 |

Individual results from above:
HMGN2P16 #3, G2 robust z-score = -1.11
Result for AZIN2 #2 in “G2 robust z-score”: -0.571
Entry for FKRP #3 under “G2 robust z-score”: -0.499
